Publication PMC10470592
These are yes or no findings as the source states them, for the method shown. Binding seen in cells or lysates may run through a third protein. Some results given as binding are weak or reduced against the parent protein; the word gives no strength.

Experiments:
[1] = target: T1, endogenous NDP52 of mouse cells (RAW 264.7, BMDMs) (mouse (endogenous in RAW 264.7 and BMDMs)) (UniProt A2A6M5); experiment: co-IP; endogenous proteins; WT RAW 264.7 cells and Flag-SHIP1 doxy-inducible RAW 264.7 cells; IP with anti-NDP52 antibody, immunoblot
T1 sequence: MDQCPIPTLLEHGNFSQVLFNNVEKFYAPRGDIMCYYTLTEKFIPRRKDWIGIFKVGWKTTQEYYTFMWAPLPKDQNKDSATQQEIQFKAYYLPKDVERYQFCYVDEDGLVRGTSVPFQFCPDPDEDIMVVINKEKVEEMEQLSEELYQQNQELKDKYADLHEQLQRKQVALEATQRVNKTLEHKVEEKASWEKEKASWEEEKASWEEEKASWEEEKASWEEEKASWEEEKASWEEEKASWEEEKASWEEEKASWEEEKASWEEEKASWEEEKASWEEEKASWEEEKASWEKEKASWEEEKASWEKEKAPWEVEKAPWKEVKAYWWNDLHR

[2] = target: T2, endogenous IRF3 of THP-1 cells (human (endogenous in THP-1)) (UniProt Q14653); experiment: co-IP; endogenous proteins; extracts of RAW 264.7 cells, BMDMs and THP-1 cells stimulated with P.y. gDNA (1 μg) for various times; IP with anti-IRF3 antibody, immunoblot
T2 sequence: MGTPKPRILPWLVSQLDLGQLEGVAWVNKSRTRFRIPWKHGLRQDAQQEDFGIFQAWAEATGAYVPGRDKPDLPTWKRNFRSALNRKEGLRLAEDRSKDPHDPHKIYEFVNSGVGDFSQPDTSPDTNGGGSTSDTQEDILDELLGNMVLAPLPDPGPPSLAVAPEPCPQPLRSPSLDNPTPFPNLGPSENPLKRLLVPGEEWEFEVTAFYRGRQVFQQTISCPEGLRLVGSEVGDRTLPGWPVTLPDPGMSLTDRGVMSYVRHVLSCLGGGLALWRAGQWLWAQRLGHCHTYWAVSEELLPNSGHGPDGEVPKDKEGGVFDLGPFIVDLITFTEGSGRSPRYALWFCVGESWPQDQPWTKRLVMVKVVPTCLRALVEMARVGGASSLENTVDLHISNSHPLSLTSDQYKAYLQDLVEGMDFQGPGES

Row | Binder | binding [1] | binding [2]
1 | endogenous IRF3 of mouse cells (RAW 264.7, BMDMs) (protein, UniProt P70671 1-419) METPKPRILPWLVSQLDLGQLEGVAWLDESRTRFRIPWKHGLRQDAQMADFGIFQAWAEASGAYTPGKDKPDVSTWKRNFRSALNRKEVLRLAADNSKDPYDPHKVYEFVTPGARDFVHLGASPDTNGKSSLPHSQENLPKLFDGLILGPLKDEGSSDLAIVSDPSQQLPSPNVNNFLNPAPQENPLKQLLAEEQWEFEVTAFYRGRQVFQQTLFCPGGLRLVGSTADMTLPWQPVTLPDPEGFLTDKLVKEYVGQVLKGLGNGLALWQAGQCLWAQRLGHSHAFWALGEELLPDSGRGPDGEVHKDKDGAVFDLRPFVADLIAFMEGSGHSPRYTLWFCMGEMWPQDQPWVKRLVMVKVVPTCLKELLEMAREGGASSLKTVDLHISNSQPISLTSDQYKAYLQDLVEDMDFQATGNI | binds | 
2 | endogenous SHIP1 of THP-1 cells (protein, UniProt Q92835 1-1189) MVPCWNHGNITRSKAEELLSRTGKDGSFLVRASESISRAYALCVLYRNCVYTYRILPNEDDKFTVQASEGVSMRFFTKLDQLIEFYKKENMGLVTHLQYPVPLEEEDTGDDPEEDTVESVVSPPELPPRNIPLTASSCEAKEVPFSNENPRATETSRPSLSETLFQRLQSMDTSGLPEEHLKAIQDYLSTQLAQDSEFVKTGSSSLPHLKKLTTLLCKELYGEVIRTLPSLESLQRLFDQQLSPGLRPRPQVPGEANPINMVSKLSQLTSLLSSIEDKVKALLHEGPESPHRPSLIPPVTFEVKAESLGIPQKMQLKVDVESGKLIIKKSKDGSEDKFYSHKKILQLIKSQKFLNKLVILVETEKEKILRKEYVFADSKKREGFCQLLQQMKNKHSEQPEPDMITIFIGTWNMGNAPPPKKITSWFLSKGQGKTRDDSADYIPHDIYVIGTQEDPLSEKEWLEILKHSLQEITSVTFKTVAIHTLWNIRIVVLAKPEHENRISHICTDNVKTGIANTLGNKGAVGVSFMFNGTSLGFVNSHLTSGSEKKLRRNQNYMNILRFLALGDKKLSPFNITHRFTHLFWFGDLNYRVDLPTWEAETIIQKIKQQQYADLLSHDQLLTERREQKVFLHFEEEEITFAPTYRFERLTRDKYAYTKQKATGMKYNLPSWCDRVLWKSYPLVHVVCQSYGSTSDIMTSDHSPVFATFEAGVTSQFVSKNGPGTVDSQGQIEFLRCYATLKTKSQTKFYLEFHSSCLESFVKSQEGENEEGSEGELVVKFGETLPKLKPIISDPEYLLDQHILISIKSSDSDESYGEGCIALRLEATETQLPIYTPLTHHGELTGHFQGEIKLQTSQGKTREKLYDFVKTERDESSGPKTLKSLTSHDPMKQWEVTSRAPPCSGSSITEIINPNYMGVGPFGPPMPLHVKQTLSPDQQPTAWSYDQPPKDSPLGPCRGESPPTPPGQPPISPKKFLPSTANRGLPPRTQESRPSDLGKNAGDTLPQEDLPLTKPEMFENPLYGSLSSFPKPAPRKDQESPKMPRKEPPPCPEPGILSPSIVLTKAQEADRGEGPGKQVPAPRLRSFTCSSSAEGRAAGGDKSQGKPKTPVSSQAPVPAKRPIKPSRSEINQQTPPTPTPRPPLPVKSPAVLHLQHSKGRDYRDNTELPHHGKHRPEEGPPGPLGRTAMQ |  | binds
